In PMC10535219, “Discovery and Potential Utility of a Novel Non-Invasive Ocular Delivery Platform” (Pharmaceutics, 2023):

Assay: Biodisposition of JV-DE1 and JV-MD2 delivered via NIODP (periorbital skin) in non-human primates
Format: in vivo, cynomolgus monkeys
Method: All experiments were performed at Medicilon. […] A pen brush was used to dose each formulation with three to four circular motions for even distribution. The doses of the test articles were selected based on their solubility/concentration with the maximum deliverable volume on the periorbital skin of the animals. The administered dose was calculated by the weight difference of the pen brush before and after administration. Animals were restrained from eye rubbing in restraint chairs for 2 h after dosing, with access to food and drink. A blood sample was collected from one of the study animals at pre-dosing. For every time point of 0.5, 3, 6, and 24 h post-dose, one animal was euthanized and the ocular tissues (upper eyelid, cornea, retina, and vitreous humor) of both eyes were collected. Plasma samples were collected before each euthanization.
For the convenience of tissue processing and sample extraction, only upper eyelids were collected to represent the entirety of the periorbital tissue. Ocular tissues were homogenized by adding a 9-fold volume of 50% methanol/H2O per gram of tissue. For the LC-MS/MS sample preparation, a 50 μL aliquot of plasma, aqueous humor, vitreous humor, or tissue homogenate was thoroughly mixed with a 250 μL extraction solution of CHCl3/EtOH (1:1); then, a 210 μL supernatant of the samples was transferred to a 96-well plate after centrifugation. […]

Structure (SMILES) | retinal Cmax relative to EC50 or IC50 of most mediators in the omega 3 DHA signaling cascade (JV-MD2, NHP, NIODP) | retinal Cmax relative to Ki on human IP and PAF receptors (JV-DE1, Cmax by eye drops in rabbits and by NIODP in monkeys)
CC/C=C\C/C=C\C/C=C\C/C=C\C/C=C\C/C=C\CCC(=O)O [JV-MD2, cis-4,7,10,13,16,19-docosahexaenoic acid] | at least 10 fold | –
CC(C)Oc1ccc(Cc2ccc(NC3=NCCN3)cc2)cc1 [JV-DE1, 4,5-dihydro-N-[4-[[4-(1-methylethoxy)phenyl]methyl]phenyl]-1H-imadazol-2-amine] | – | at least 100 fold
